{
  "source": "patent US7872041B2",
  "about": "“Use of rotigotine for treating and preventing Parkinson's plus syndrome” (priority 2004, dated 2011)",
  "origin": "cited, not measured here",
  "details": "Wenning et al, Lancet 2004; bromocriptine trial with six patients, lisuride controlled trial; cited from earlier work",
  "note": "For at least one compound, name, drawing or mass did not settle the structure.",
  "data": [
    {"smiles": "CC(C)C[C@H]1C(=O)N2CCC[C@H]2[C@]2(O)O[C@](NC(=O)[C@@H]3C=C4c5cccc6[nH]c(Br)c(c56)C[C@H]4N(C)C3)(C(C)C)C(=O)N12", "note": "[bromocriptine]", "values": [
      {"measurement": "Therapeutic efficacy in Parkinson's plus syndrome", "result": "therapeutic success"}
    ]}
  ]
}
